The results in this text go back to PubChem BioAssay AID2685 (National Center for Advancing Translational Sciences (NCATS), 2010).

The term AC50 denotes the concentration giving half of the maximal activity seen. A high value points to activity only at high concentration.

Molecules are shown by their SMILES. The list shows a part of the results. Further columns of the screen follow, without active or inactive calls. Most of these compounds were active or inconclusive in the main read-out, so they are no random draw. The note in brackets gives the kind of curve behind each potency; many fits are weak.

This assay in a line: qHTS Assay for Lipid Storage Modulators in Drosophila S3 Cells.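 For cell number change: cells counted by Cell Tracker Red CMTPX staining in the red channel.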 As to conditions: BODIPY lipid droplet fluorescence, 18-24 h; for cell number change: measured here: cell count max response, cells fed with added oleic acid. An outline of the steps:
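Laser-scanning cytometry quantifies lipid droplet accumulation (500–530 nm total intensity; droplet/cell object ratio) in oleic acid-fed (400 uM added) Drosophila S3 cells treated with a concentration series. 20 uM Triacsin C defined 100% inhibition.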

[1] abbreviates: measured here: lipid fluorescence (Fed channel) AC50, cells fed with added oleic acid.
[2] abbreviates: measured here: cell number channel AC50, cells fed with added oleic acid.

Take `CCN1C(=O)[C@H]2[C@@H](c3ccc(C)cc3)N3C(=O)N(c4cccc(Cl)c4)C(=O)[C@@]3(Cc3ccc(Cl)cc3)[C@H]2C1=O`: the AC50 under setting [1] was 14.6 µM [rising, partial curve].
Turning to `COC(=O)c1sccc1NC(=O)c1cccc(OC)c1`, the AC50 is 3.26 µM [rising, partial curve] under setting [2] and 3.66 µM [rising, partial curve] under setting [1].
In the case of `Cc1cc(=O)n2ncnc2n1COCCO`, the cell number change is -14.4%. Moreover, the AC50 under setting [1] was 20.6 µM [falling, partial curve, poor fit].
In the case of `CN(C)/C=C/c1[nH]c(=O)[nH]c(=O)c1[N+](=O)[O-]`, the cell number change stood at 20.9%. In addition, under setting [1], the AC50 was 18.4 µM [rising, single point].
For `O=C(COc1ccc2ccccc2c1)NCCc1ccc2c(c1)OCCO2`, the cell number change amounted to 47.4%. Under setting [2], the AC50 is 2.31 µM [rising, partial curve]. For the same molecule, under setting [1], the AC50 is 9.2 µM [rising, partial curve, poor fit].
Take `O=C(O)c1ccc(Cl)c(S(=O)(=O)N2CCCCCC2)c1`: the cell number change stood at 14.4%. Besides, under setting [2], the AC50 is 2.31 µM [falling, partial curve]. Further, the AC50 under setting [1] is 20.6 µM [falling, single point].
On to `Cc1ccc(NC(=O)c2ccc(OCc3c(C)noc3C)cc2)c(C)c1`, for which the cell number change came out at 25.7%. Also, the AC50 under setting [1] is 10.3 µM [falling, partial curve].
In the case of `O=C(COC(=O)c1ccc2c(c1)OCO2)Nc1cccc(F)c1`, the cell number change worked out at 4.69%. Moreover, under setting [1], the AC50 was 13 µM [rising, partial curve].
Regarding `Cc1ccc(-c2nn(-c3cc(N4CCNCC4)ccc3[N+](=O)[O-])c(=O)c3ccccc23)cc1`, the cell number change is -30.7%. Further, the AC50 under setting [2] is 2.31 µM [falling, single point].
As to `Cc1cc(C)cc(NC(=O)COC(=O)CCn2c(C)csc2=O)c1`, the cell number change amounted to 2.13%. Also, the AC50 under setting [1] was 6.51 µM [rising, single point].
`CC1CCN(c2ccc3c(c2)S(=O)(=O)c2cccc(C(=O)NCc4ccc(F)cc4)c2C3=O)CC1`: the cell number change is -34.7%. For the same molecule, the AC50 under setting [2] is 6.51 µM [falling, partial curve, poor fit]. Also, the AC50 under setting [1] is 2.31 µM [falling, partial curve].
Take `CCCCN(CCO)c1ncnc2sc(-c3ccccc3)cc12`: the cell number change came out at 14.3%. The AC50 under setting [1] was 0.82 µM [rising, full curve, poor fit].
Regarding `Cc1ccc(S(=O)(=O)NNC(=O)c2sc(NS(=O)(=O)c3ccccc3)nc2C)cc1`, the cell number change was determined as 12.8%.
As to `COCCCNC(=O)Cn1c(=O)n(CC(=O)N2CCCCC2)c(=O)c2sccc21`, the AC50 under setting [1] is 29.1 µM [falling, single point].
On to `Cn1c(N)c(C(=O)COC(=O)c2cc(-c3ccccc3)nc3ccccc23)c(=O)n(Cc2ccccc2)c1=O`, for which the cell number change was -0.83%. The AC50 under setting [1] was 1.84 µM [rising, full curve].
Take `CCOc1ccc(N(CC(=O)NCCSCc2ccc(C)cc2)S(C)(=O)=O)cc1`: the cell number change is -23.1%. In addition, the AC50 under setting [1] is 6.51 µM [falling, single point].
With `Cn1ncc(C#N)c1/N=C/N1CCCC1`, the cell number change is -61.9%. For the same molecule, the AC50 under setting [2] was 3.66 µM [falling, full curve]. For the same molecule, the AC50 under setting [1] was 3.66 µM [falling, full curve].
For the molecule `COc1ccc(CCN=C(N)NS(=O)(=O)c2cccs2)cc1`, the cell number change came to 50%. For the same molecule, the AC50 under setting [1] is 23.1 µM [rising, single point].
Turning to `CCCn1c(-c2ccccc2)cc(SC)c(C#N)c1=O`, the cell number change stood at 38.7%. In addition, under setting [2], the AC50 is 11.6 µM [rising, single point]. In addition, under setting [1], the AC50 is 6.51 µM [rising, single point].
In the case of `Cn1cnc2cc(NS(=O)(=O)c3ccc(Br)cc3)ccc21`, the cell number change is 18.5%. In addition, the AC50 under setting [2] was 0.517 µM [rising, full curve, poor fit]. Also, the AC50 under setting [1] was 16.4 µM [rising, partial curve].
Consider `Cc1ccc(OCC(=O)Nc2ccc(N3CCOCC3)cc2)c([N+](=O)[O-])n1`, for which the cell number change was determined as 18.3%. Further, under setting [1], the AC50 is 3.26 µM [falling, single point].
Take `O=C(Nc1cccc(Cl)c1)C1CCCN(S(=O)(=O)c2ccc(F)cc2)C1` (stereo unspecified): the cell number change amounted to 23.9%. Also, the AC50 under setting [2] is 0.731 µM [falling, single point].
As for `COc1ccc(NC(=O)CN2CCN(CC(=O)Nc3ccccc3F)CC2)c(OC)c1`, the concentration at half-maximal activity (AC50) under setting [2] was 6.51 µM [rising, single point].
With `O=C(NCc1cccnc1)NC(=O)c1ccc(Cl)cc1`, the AC50 under setting [1] was 1.12 µM [rising, full curve, poor fit].
On to `FC(F)(F)c1cnc(C(c2ccccn2)c2ncn[nH]2)c(Cl)c1` (stereo unspecified), for which the cell number change was determined as 13.6%. In addition, under setting [2], the AC50 is 0.00461 µM [rising, full curve, poor fit].
For `O=C(C#Cc1ccccc1)Nc1cccc(F)c1`, the AC50 under setting [1] was 0.82 µM [falling, full curve].
Consider `O=C(Cn1cncn1)N/N=C/c1cc([N+](=O)[O-])ccc1O`, for which the cell number change was -1.58%. Under setting [1], the AC50 is 0.164 µM [falling, full curve, poor fit].
Regarding `CS(=O)(=O)N1CCN(C(=O)CSc2ccccc2)CC1`, the cell number change is -4.11%.
As to `CC(C)CNS(=O)(=O)c1ccc(CCC(=O)Nc2cc(Cl)ccc2Oc2ccccc2)cc1`, the cell number change came out at 16.9%.
For `COc1ccc(NC(=O)c2ccc3c(=O)n4c(nc3c2)CCCCC4)cc1`, the cell number change is -95.4%. Besides, the AC50 under setting [2] was 29.1 µM [falling, single point]. Besides, under setting [1], the AC50 is 29.1 µM [falling, single point].
As to `CCOc1ccc(C(C)=O)cc1CN1C(=O)C(=O)N(CC)C1=O`, the cell number change was found to be 41.2%. The concentration at half-maximal activity (AC50) under setting [2] was 29.1 µM [rising, single point].
Turning to `O=C(NCc1ccc2c(c1)OCO2)c1c(O)nc2sccn2c1=O`, the cell number change amounted to 155%. Further, under setting [2], the AC50 was 4.61 µM [falling, single point]. In addition, the AC50 under setting [1] was 4.61 µM [falling, single point].
`COC(=O)c1ccccc1N1C(=O)C2C(C1=O)[C@H]1C=C[C@@H]2C1` (stereo partly specified): the cell number change is 7.67%. For the same molecule, the half-maximal activity concentration (AC50) under setting [1] was 29.1 µM [rising, single point].
Take `COc1cc(CNn2nnnc2N)ccc1OCc1c(Cl)cccc1Cl`: the cell number change is -53.1%. The AC50 under setting [2] is 29.1 µM [falling, single point]. Moreover, the half-maximal activity concentration (AC50) under setting [1] is 29.1 µM [rising, single point].
Turning to `Cc1cccc(C)c1NC(=O)CN1CCN(CCCC(c2ccc(F)cc2)c2ccc(F)cc2)CC1`, the cell number change is -55.7%. Moreover, the AC50 under setting [2] is 29.1 µM [falling, single point]. Besides, under setting [1], the concentration at half-maximal activity (AC50) is 4.61 µM [falling, single point].
For `O=C(NNC(=O)C1CC1)c1ccccc1[N+](=O)[O-]`, the cell number change is -0.283%.
For the molecule `COc1ccccc1NC(=O)Nc1sccc1-c1nc2ccccc2s1`, the cell number change was -6.58%. In addition, the AC50 under setting [1] was 29.1 µM [falling, single point].
On to `CCc1ccc(CN(C)CC(=O)Nc2ccc3c(c2)CCC3)cc1`, for which the cell number change was -46.5%. Besides, under setting [2], the AC50 was 0.58 µM [falling, full curve]. Under setting [1], the AC50 was 0.82 µM [falling, full curve].
For `COc1cccc(-c2nc3c(c(SCC(=O)N4CCOCC4)n2)Cc2c(CO)cnc(C)c2O3)c1`, the AC50 under setting [1] was 0.58 µM [falling, full curve].
As for `COC(=O)C1CCN(C(=O)C2CCC(=O)N(CCCc3ccccc3)C2)CC1` (stereo unspecified), the cell number change was determined as 17.2%. In addition, the AC50 under setting [1] was 16.4 µM [falling, single point].
Regarding `C=CCC(CC(O)COCCC)C(=O)NNC(=S)Nc1ccccc1` (stereo unspecified), the cell number change worked out at 7.25%. For the same molecule, the AC50 under setting [1] is 2.06 µM [rising, partial curve].
As to `CCOC(=O)C1=C(C)OC(N)=C(C#N)C1c1cc2c(cc1Br)OCO2` (stereo unspecified), the cell number change was -4.13%. Further, the AC50 under setting [1] is 2.06 µM [rising, full curve].
Consider `CCOC(=O)CSc1nnc(NC(=O)c2cc([N+](=O)[O-])cc([N+](=O)[O-])c2)s1`, for which the cell number change was -33.3%. Besides, under setting [2], the AC50 was 32.6 µM [falling, single point].
As for `CC1C/C(=N\NC(N)=S)c2cc(Cl)ccc2S1` (stereo unspecified), the cell number change worked out at 9.56%.
In the case of `CN1CCc2c(sc(/N=C/c3ccco3)c2C(N)=O)C1`, the cell number change is -2.03%.
Still for that read-out and setting: under `O=C(c1ccc(Sc2ccc(F)cc2)c([N+](=O)[O-])c1)N1CCOCC1` stands 29.4%.
Consider `CCc1nnc(NS(=O)(=O)c2ccc(NCc3cc(Cl)ccc3O)cc2)s1`, for which the cell number change came to 3.85%. The AC50 under setting [1] is 0.13 µM [rising, full curve].
With `O=C1c2ccccc2C(=O)c2c1cccc2N(CCO)CCO`, the cell number change was determined as 1.94%. The half-maximal activity concentration (AC50) under setting [1] was 29.1 µM [falling, single point].
Consider `COc1ccc(CCNC(=O)COc2coc(CN3c4ccccc4CC3C)cc2=O)cc1OC` (stereo unspecified), for which the cell number change was -20.1%. For the same molecule, the AC50 under setting [1] is 29.1 µM [falling, single point].
As for `COc1ccc(CNC(=O)N2CCN(c3ccc(F)cc3)CC2)cc1Cl`, the cell number change was -45.4%. The AC50 under setting [2] was 0.103 µM [falling, full curve, poor fit]. Under setting [1], the AC50 is 23.1 µM [falling, single point].
As to `CC(=O)Oc1cccc(C(=O)Nc2ccc(NC(=O)c3cccs3)cc2)c1`, the cell number change was -9.7%. Besides, under setting [1], the concentration at half-maximal activity (AC50) is 6.51 µM [falling, full curve, poor fit].
As for `COCCN(CCOC)S(=O)(=O)c1ccc(/C(O)=C(\C#N)c2nc3ccccc3[nH]2)cc1`, the cell number change turned out to be 24.6%.
As to `O=C1CN(c2cc(Cl)cc(Cl)c2)C(=O)CN1/N=C/c1cccnc1`, the cell number change is -47.6%. Under setting [2], the AC50 is 25.9 µM [falling, single point].
For the molecule `O=C(COC(=O)Cc1c[nH]c2ccccc12)NC1CCS(=O)(=O)C1` (stereo unspecified), the cell number change is -8.5%.
Regarding `COc1cc(/C=N\NC(=O)Cn2nnc3ccccc32)cc(OC)c1OC`, the cell number change stood at 83.9%. In addition, the AC50 under setting [2] is 20.6 µM [rising, single point].
Turning to `O=C(CCN1C(=O)/C(=C/c2ccccc2)SC1=S)NNC(=O)c1cccnc1`, the cell number change came to 37.6%. Moreover, under setting [2], the AC50 is 2.31 µM [rising, full curve]. The AC50 under setting [1] was 18.4 µM [rising, partial curve].
For `COC(=O)c1scc(C)c1NC(=O)C(Cl)c1ccccc1` (stereo unspecified), the cell number change was determined as 11%. For the same molecule, under setting [2], the AC50 is 0.461 µM [rising, full curve, poor fit]. The AC50 under setting [1] is 0.00461 µM [rising, full curve, poor fit].
Take `O=C(Cn1c(C(=O)NCC2CCCO2)cc2sccc21)c1ccccc1` (stereo unspecified): the cell number change is -66%. Further, the AC50 under setting [2] was 32.6 µM [falling, partial curve]. Also, under setting [1], the AC50 is 8.2 µM [falling, partial curve].
